The assay deals with L1210 leukemia ip in BDF1 mice, survival T/C. Briefly: NCI In Vivo Anticancer Drug Screen. Data for tumor model L1210 Leukemia (intraperitoneal) in B6D2F1 (BDF1) mice. As to conditions: T/C endpoint: mean survival time, higher T/C = longer survival.
Where [1] appears, read: dose: 400.0 mg/kg/injection, schedule: Q04DX003 (ip), vehicle: saline.
[2] abbreviates: dose: 100.0 mg/kg/injection, schedule: Q01DX001 (ip), vehicle: saline.
The mark [3] stands for this setting: dose: 200.0 mg/kg/injection, schedule: Q01DX001 (ip), vehicle: saline.
The mark [4] stands for this setting: dose: 400.0 mg/kg/injection, schedule: Q01DX001 (ip), vehicle: saline.
Setting [5] is: dose: 200.0 mg/kg/injection, schedule: Q04DX003 (ip), vehicle: Klucel (hydroxypropylcellulose) (HPC).
The mark [6] stands for this setting: dose: 400.0 mg/kg/injection, schedule: Q04DX003 (ip), vehicle: Klucel (hydroxypropylcellulose) (HPC).

The list is a part of this screen's results and no random one: it gathers tests that were run many times, whatever their T/C, doses with no T/C, and many T/C values between a quarter and a half above the control. Further doses and runs are listed elsewhere. T/C is the treated group as % of the vehicle group. Some doses have a count of surviving animals in place of a T/C: the source files T/C as zero there, which appears to mark a toxic dose or a test without result, not a measured value. Some doses without a T/C left all or most animals alive at the check, yet need not have been tolerated: the source hardly ever lists a survival T/C far under the control, and the zero likely stands for such cases as well. Counts of survivors are from the toxicity check (mostly the fifth day) where no day follows; animals may have died later. Schedules are NCI's codes, read here as Q, the interval in days (D) or hours (H), X, the number of doses. Some schedules carry Z or #; the key to these is not given. Some entries hold several experiments; the values are given in rising order. Where survival is the endpoint, the PubChem record calls one and a half times the control and up active, and a quarter to a half above the control has no call in these data; cut-offs in other NCI protocols can differ.

With `CCCCCc1csc(-c2ccc(N(C)C)cc2)[n+]1C`, the survivor count reads like this: (dose: 10.0 mg/kg/injection, schedule: Q01DX009 (ip), vehicle: Klucel (hydroxypropylcellulose) (HPC)) 0 of 6; (dose: 20.0 mg/kg/injection, schedule: Q01DX009 (ip), vehicle: Klucel (hydroxypropylcellulose) (HPC)) 0 of 6; (dose: 40.0 mg/kg/injection, schedule: Q01DX009 (ip), vehicle: Klucel (hydroxypropylcellulose) (HPC)) 0 of 6; (dose: 75.0 mg/kg/injection, schedule: Q01DX009 (ip), vehicle: Klucel (hydroxypropylcellulose) (HPC)) 6 of 6; (dose: 150.0 mg/kg/injection, schedule: Q01DX009 (ip), vehicle: Klucel (hydroxypropylcellulose) (HPC)) 0 of 6; (dose: 300.0 mg/kg/injection, schedule: Q01DX009 (ip), vehicle: Klucel (hydroxypropylcellulose) (HPC)) 0 of 6.
As for `CN1C(c2ccc(Cl)cc2)OCC1(C)C` (configuration not stated), the survivor count (dose: 400.0 mg/kg/injection, schedule: Q04DX003 (ip), vehicle: saline sonified) is 6 of 6.
As to `NC(N)=NN=C(C1CC1)C1CC1`, the survivor count is, setting by setting: (dose: 480.0 mg/kg/injection, schedule: Q01DX Z (ip), vehicle: carboxymethylcellulose (CMC)) 6 of 6; (dose: 960.0 mg/kg/injection, schedule: Q01DX Z (ip), vehicle: carboxymethylcellulose (CMC)) 0 of 6.
On to `COC1(OC)C(Cl)=C(Cl)C(Cl)=C1Cl`, for which the survivor count by setting is: (dose: 25.0 mg/kg/injection, schedule: Q04DX003 (ip), vehicle: saline with Tween-80) 1 of 6; (dose: 50.0 mg/kg/injection, schedule: Q04DX003 (ip), vehicle: saline with Tween-80) 0 of 6; (dose: 100.0 mg/kg/injection, schedule: Q04DX003 (ip), vehicle: saline with Tween-80) 0 of 6.
`CC(C)(NC(=O)N(CCCl)N=O)C(=O)O`: the T/C (dose: 54.0 mg/kg/injection, schedule: Q01DX001 (ip), vehicle: saline with Tween-80) is 129 % of control and the T/C (dose: 80.0 mg/kg/injection, schedule: Q01DX001 (ip), vehicle: saline with Tween-80) is 132 % of control.
`O=C1c2ccccc2C(=O)N1N(c1ccccc1)c1ccccc1`: the survivor count (dose: 100.0 mg/kg/injection, schedule: Q01DX009 (ip), vehicle: Klucel (hydroxypropylcellulose) (HPC)) is 3 of 6.
In the case of `CN(C)CCCC1(C#N)c2ccccc2CCc2ccccc21`, the survivor count is, setting by setting: (dose: 100.0 mg/kg/injection, schedule: Q01DX009 (ip), vehicle: saline) 3 of 6; (dose: 200.0 mg/kg/injection, schedule: Q04DX003 (ip), vehicle: saline) 2 of 4; under setting [1], 0 of 4.
On to `O=C(CCCN1CCC(O)CC1)c1ccc(N2CC=C(c3ccccc3)CC2)cc1`, for which the survivor count (dose: 400.0 mg/kg/injection, schedule: Q04DX002 (ip), vehicle: Klucel (hydroxypropylcellulose) (HPC)) is listed as 3 of 3.
Turning to `Cn1cnc2c(C#N)c(C#N)nn2c1=O`, for the setting “dose: 400.0 mg/kg/injection, schedule: Q01DX001 (ip), vehicle: carboxymethylcellulose (CMC)”, the survivor count is 0 of 4.
For the compound `O=CO.[Cd]`, the survivor count reads like this: (dose: 10.0 mg/kg/injection, schedule: Q01DX001 (ip), vehicle: saline) 3 of 6; (dose: 20.0 mg/kg/injection, schedule: Q01DX001 (ip), vehicle: saline) 0 of 6; (dose: 40.0 mg/kg/injection, schedule: Q01DX001 (ip), vehicle: saline) 0 of 6; (dose: 80.0 mg/kg/injection, schedule: Q01DX001 (ip), vehicle: saline) 0 of 6; under setting [2], 0 of 6; under setting [3], 0 of 6. For the same compound, the survivor count under setting [4] is 0 of 6.
Regarding `COC(CCCl)c1ccccc1` (configuration not stated), for the setting “dose: 400.0 mg/kg/injection, schedule: Q01DX009 (ip), vehicle: saline with Tween-80”, the survivor count was 3 of 6.
In the case of `NNc1cnc2ccccc2n1`, the survivor count is on record as 5 of 6 (dose: 200.0 mg/kg/injection, schedule: Q01DX009 (ip), vehicle: saline sonified) and 5 of 6 (dose: 400.0 mg/kg/injection, schedule: Q01DX009 (ip), vehicle: saline sonified).
Take `Cc1ccc(S(=O)(=O)/C(Cl)=C(/Cl)S(=O)(=O)c2ccc(C)cc2)cc1`: the survivor count was 6 of 6 (dose: 12.5 mg/kg/injection, schedule: Q01DX009 (ip), vehicle: saline with Tween-80); 0 of 6 (dose: 12.5 mg/kg/injection, schedule: Q01DX009 (ip), vehicle: saline); 6 of 6 (dose: 25.0 mg/kg/injection, schedule: Q01DX009 (ip), vehicle: saline with Tween-80); 5 of 6 (dose: 25.0 mg/kg/injection, schedule: Q04DX003 (ip), vehicle: saline); 0 of 6 (dose: 50.0 mg/kg/injection, schedule: Q01DX001 (ip), vehicle: saline); 3 of 6 and 6 of 6 (dose: 50.0 mg/kg/injection, schedule: Q01DX009 (ip), vehicle: saline with Tween-80). Also, the survivor count by setting is: under setting [2], 0 of 6 and 1 of 6; (dose: 100.0 mg/kg/injection, schedule: Q04DX003 (ip), vehicle: Klucel (hydroxypropylcellulose) (HPC)) 5 of 6; under setting [3], 1 of 6; under setting [5], 1 of 6; under setting [4], 0 of 6; under setting [6], 0 of 6.
Consider `COC(=O)C(CCCCN=Cc1ccccc1O)N=Cc1ccccc1O.[Cu]` (configuration not stated), for which the survivor count (dose: 100.0 mg/kg/injection, schedule: Q01DX009 (ip), vehicle: saline with Tween-80) is 3 of 6; the survivor count (dose: 200.0 mg/kg/injection, schedule: Q04DX003 (ip), vehicle: saline with Tween-80) is 0 of 6; the survivor count (dose: 400.0 mg/kg/injection, schedule: Q04DX003 (ip), vehicle: saline with Tween-80) is on record as 0 of 6.
Take `CCN(CC)c1ccc(C(=O)OCCNC2CCCCC2)cc1`: the survivor count (dose: 300.0 mg/kg/injection, schedule: Q01DX001 (ip), vehicle: carboxymethylcellulose (CMC)) is recorded as 2 of 6.
As to `Nc1ccc(Cc2ccc(N)cc2)cc1`, the survivor count was 0 of 6 (dose: 200.0 mg/kg/injection, schedule: Q01DX009 (ip), vehicle: gum acacia) and 0 of 6 (dose: 400.0 mg/kg/injection, schedule: Q01DX009 (ip), vehicle: gum acacia).
In the case of `C=C(C(=O)OC)C(C(=O)OC)=C(N1CCCCC1)N1CCCCC1`, the survivor count (dose: 400.0 mg/kg/injection, schedule: Q04DX002 (ip), vehicle: saline with Tween-80) is 0 of 3.
As to `Oc1ccc(C2=CSC3=NCCN23)cc1`, the survivor count by setting is: under setting [2], 2 of 4; under setting [3], 0 of 4; under setting [4], 0 of 4.
With `OCC1CCCN2CCCCC12` (configuration not stated), the survivor count under setting [1] was 0 of 6.
On to `O=NN(CCCl)C(=O)N[C@H]1CCCC[C@H]1O`, for which the survivor count (dose: 90.0 mg/kg/injection, schedule: Q01DX001 (ip), vehicle: saline with Tween-80) is on record as 10 of 10; the survivor count (dose: 133.0 mg/kg/injection, schedule: Q01DX001 (ip), vehicle: saline with Tween-80) was 10 of 10; the survivor count (dose: 200.0 mg/kg/injection, schedule: Q01DX001 (ip), vehicle: saline with Tween-80) is 10 of 10.
For `O=C(/C=C/c1cccc(Br)c1)c1ccc(Cl)cc1`, the survivor count (dose: 400.0 mg/kg/injection, schedule: Q04DX003 (ip), vehicle: other) is 6 of 6.
Consider `N#Cc1c(CSC(=N)N)sc2ccccc12`, for which the survivor count under setting [5] was 1 of 6 and the survivor count under setting [6] is listed as 0 of 6.
In the case of `O=C(Nc1ccc(NC(=O)c2ccc(C3=NCCCN3)cc2)cc1)c1ccc(C2=NCCCN2)cc1`, for the setting “dose: 30.0 mg/kg/injection, schedule: Q01DX Z (ip), vehicle: carboxymethylcellulose (CMC)”, the T/C was 141 % of control. The survivor count is listed as 0 of 6 (dose: 60.0 mg/kg/injection, schedule: Q01DX Z (ip), vehicle: carboxymethylcellulose (CMC)) and 0 of 6 (dose: 120.0 mg/kg/injection, schedule: Q01DX Z (ip), vehicle: carboxymethylcellulose (CMC)).
